Among the data in publication PMC3305387 are binding values, retold here.

Chains of the proteins cited; added tags and fusions are not shown.
UniProt Q80U70: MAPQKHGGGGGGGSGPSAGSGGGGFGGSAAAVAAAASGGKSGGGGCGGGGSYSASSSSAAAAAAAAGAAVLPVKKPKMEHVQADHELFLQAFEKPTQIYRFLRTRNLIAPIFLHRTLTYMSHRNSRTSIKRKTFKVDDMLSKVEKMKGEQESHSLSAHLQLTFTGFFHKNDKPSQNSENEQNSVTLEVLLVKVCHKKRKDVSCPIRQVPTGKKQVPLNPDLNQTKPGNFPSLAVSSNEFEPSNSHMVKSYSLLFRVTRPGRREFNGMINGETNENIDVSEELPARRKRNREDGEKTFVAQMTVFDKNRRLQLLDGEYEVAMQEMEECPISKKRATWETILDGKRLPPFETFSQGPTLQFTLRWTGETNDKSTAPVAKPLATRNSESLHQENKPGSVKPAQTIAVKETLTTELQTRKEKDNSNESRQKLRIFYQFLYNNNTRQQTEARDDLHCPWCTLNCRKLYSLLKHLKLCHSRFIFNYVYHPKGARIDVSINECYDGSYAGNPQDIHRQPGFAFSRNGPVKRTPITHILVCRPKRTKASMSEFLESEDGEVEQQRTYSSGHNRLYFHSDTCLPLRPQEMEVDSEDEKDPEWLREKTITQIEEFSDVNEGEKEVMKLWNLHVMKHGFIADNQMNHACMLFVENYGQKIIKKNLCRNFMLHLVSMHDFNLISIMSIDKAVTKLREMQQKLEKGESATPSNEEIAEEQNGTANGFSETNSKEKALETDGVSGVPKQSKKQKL
UniProt Q61188: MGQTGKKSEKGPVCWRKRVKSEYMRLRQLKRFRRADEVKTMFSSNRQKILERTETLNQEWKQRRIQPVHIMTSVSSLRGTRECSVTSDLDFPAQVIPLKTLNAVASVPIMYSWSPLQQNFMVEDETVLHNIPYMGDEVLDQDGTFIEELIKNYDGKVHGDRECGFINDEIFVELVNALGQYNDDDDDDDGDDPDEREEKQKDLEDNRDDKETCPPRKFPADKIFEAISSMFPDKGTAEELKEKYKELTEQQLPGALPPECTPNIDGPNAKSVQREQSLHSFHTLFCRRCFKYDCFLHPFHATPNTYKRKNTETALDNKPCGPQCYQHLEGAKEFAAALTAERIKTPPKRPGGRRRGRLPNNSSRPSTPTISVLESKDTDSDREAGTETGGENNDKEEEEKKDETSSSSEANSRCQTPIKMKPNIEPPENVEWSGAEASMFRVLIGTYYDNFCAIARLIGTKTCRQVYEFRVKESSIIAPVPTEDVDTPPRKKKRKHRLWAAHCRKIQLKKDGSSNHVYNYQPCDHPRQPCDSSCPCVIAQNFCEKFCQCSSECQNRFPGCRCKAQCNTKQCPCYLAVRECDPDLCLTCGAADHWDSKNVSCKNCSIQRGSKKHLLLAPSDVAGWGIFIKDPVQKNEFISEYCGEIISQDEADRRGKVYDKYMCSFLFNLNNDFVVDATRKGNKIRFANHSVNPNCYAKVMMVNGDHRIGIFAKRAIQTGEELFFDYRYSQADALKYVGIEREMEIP
UniProt Q02395: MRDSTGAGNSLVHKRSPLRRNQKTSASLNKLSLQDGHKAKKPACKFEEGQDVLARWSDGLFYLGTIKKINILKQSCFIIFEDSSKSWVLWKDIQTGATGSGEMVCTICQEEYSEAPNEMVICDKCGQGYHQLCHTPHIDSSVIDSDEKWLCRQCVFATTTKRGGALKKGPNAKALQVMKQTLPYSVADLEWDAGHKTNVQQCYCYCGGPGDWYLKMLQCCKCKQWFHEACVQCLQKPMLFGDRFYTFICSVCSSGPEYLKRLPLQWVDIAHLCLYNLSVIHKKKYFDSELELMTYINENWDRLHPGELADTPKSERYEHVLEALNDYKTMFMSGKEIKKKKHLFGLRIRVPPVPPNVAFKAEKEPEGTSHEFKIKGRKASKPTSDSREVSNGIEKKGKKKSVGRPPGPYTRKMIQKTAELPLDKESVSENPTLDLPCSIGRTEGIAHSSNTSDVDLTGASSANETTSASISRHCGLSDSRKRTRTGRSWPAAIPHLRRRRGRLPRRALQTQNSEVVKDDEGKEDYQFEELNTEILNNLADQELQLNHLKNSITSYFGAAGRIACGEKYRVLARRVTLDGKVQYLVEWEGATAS
UniProt Q921E6: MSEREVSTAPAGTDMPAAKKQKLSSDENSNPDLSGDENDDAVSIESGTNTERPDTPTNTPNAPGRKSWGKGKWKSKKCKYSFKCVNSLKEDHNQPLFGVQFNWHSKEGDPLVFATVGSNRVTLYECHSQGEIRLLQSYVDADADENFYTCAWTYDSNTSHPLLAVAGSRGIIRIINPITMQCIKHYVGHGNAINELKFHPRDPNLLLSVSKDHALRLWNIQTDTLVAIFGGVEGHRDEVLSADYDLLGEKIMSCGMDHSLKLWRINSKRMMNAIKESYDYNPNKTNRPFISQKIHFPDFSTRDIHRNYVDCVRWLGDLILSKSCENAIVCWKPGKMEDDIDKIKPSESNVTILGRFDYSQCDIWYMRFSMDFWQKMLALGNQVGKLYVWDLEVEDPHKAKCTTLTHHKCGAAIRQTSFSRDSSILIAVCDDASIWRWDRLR

These are yes or no findings as the source states them, for the method shown. In cells and extracts the contact can be indirect. Some results given as binding are weak or reduced against the parent protein; the word gives no strength.

Assay [1] deals with Suz12-TAP (mouse) (UniProt Q80U70). The experiment in a line: co-IP; FlagM2 resin (40 µl) added to 800 µg ESC protein lysate overnight; TAP-tagged bait precipitated, immunoblot; scramble and Pcl3 shRNA cells where used. Background: A western blot detects proteins with antibodies after separation by electrophoresis.
Assay [2] has as its target Ezh2 (mouse (endogenous in E14 ESCs)) (UniProt Q61188). In words: co-IP; co-immunoprecipitation of the PRC2 core components from scramble and Pcl3 shRNA-expressing ESCs.
For assay [3], the target named is Suz12 (mouse (endogenous in E14 ESCs)) (UniProt Q80U70). The description is as above.
Assay [4] has as its target Pcl2 (mouse (endogenous in E14 ESCs)) (UniProt Q02395). In words: co-IP; reciprocal immunoprecipitation of Pcl2 from ESCs expressing Suz12-TAP or Pcl3-TAP; immunoblot.

Consider Pcl2 (from UniProt Q02395 1-593), for which the binding result in assay [1] is “binds”.

Consider Eed (from UniProt Q921E6 1-441), for which the binding entry in assay [2] and in assay [3] was “binds” throughout.

For the substance Suz12-TAP (from UniProt Q80U70 1-741), the binding result in assay [4] is recorded as “binds”.
